Measured values as given in the supplement of paper PMC4635364.
Counter-ions that a name gives are not always drawn. The list shows a part of the results. Repeats in this data set agree poorly, so a single value says little.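 ReNCell VM, a human fetal ventral-midbrain neural progenitor line, was differentiated without mitogens. Blinded raters scored images stained for doublecortin (early neurons) or tyrosine hydroxylase (dopaminergic neurons) against untreated wells (0 = no change). Scores were averaged across repeats and both raters, and compounds averaging 2 or more were selected as hits for retesting.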

The compounds below were run on ReNCell VM (assay: dopaminergic neuron differentiation score (TH+ cell fraction vs untreated, manual image score) (score (0 to 3)); higher = more TH+ dopaminergic neuron differentiation). Settings: library: Tocriscreen; 2 uM; 4 weeks; BDNF 10 ng/ml + GDNF 10 ng/ml.

Dopaminergic neuron differentiation score, inactive:
O=C(c1ccc(F)cc1)C1CCN(CCn2c(=S)[nH]c3ccccc3c2=O)CC1 [Altanserin hydrochloride] 0
COc1cc(C[C@H]2C(=O)OC[C@@H]2Cc2ccc(OC)c(OC)c2)ccc1O [Arctigenin] 0
OCC(CO)N[C@H]1C[C@](O)(CO)[C@@H](O)[C@H](O)[C@H]1O [Voglibose] 0
COc1ccc(-c2nc(C(=O)N3CCN(C)CC3)sc2-c2ccc(OC)cc2)cc1 0
NS(=O)(=O)c1nn2cc(-c3ccccc3)nc2s1 0
Cc1ccccc1N=Nc1ccc(NC(=O)c2ccnn2C)c(C)c1 0
O=C(c1ccc(F)cc1)C1CCN(CCCCc2ccccc2)CC1 [4-(4-Fluorobenzoyl)-1-(4-phenylbutyl)-piperidine oxalate] 0
CO[C@@H]1[C@H](O)[C@@H](CO)O[C@H]1n1cnc2c(NC3CCCCC3)ncnc21 0
